# Experimental data reported in PubChem BioAssay AID662 (National Center for Advancing Translational Sciences (NCATS), 2007).
# The list shows a part of the results. The main result of the screen is listed elsewhere. These columns were measured beside it and carry no call. The list favours compounds with an active or inconclusive main result. The note in brackets gives the kind of curve behind each potency; many fits are weak.
# Assay: Cell signaling CRE-BLA (Fsk stim)
# Conditions: CHO CRE-bla reporter (cAMP response element driving beta-lactamase), forskolin EC10, beta-lactamase ratio; measured here: 460 nm blue channel
# How it was run: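 Modulation of forskolin signalling: compounds in titration series added with EC10 NKH 477 to CHO cells carrying a CRE-driven beta-lactamase reporter, 3 h, 37C. CCF4 FRET ratio (460/530 nm, ex 405 nm) gives %activity and AC50.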
row,Structure (SMILES),AC50
1,Cc1nc2cnc(Nc3ccccc3)nc2n(CCC#N)c1=O,"1 µM [rising, full curve]"
2,COc1cccc(-c2cc(NCc3ccc(OC)cc3OC)ncn2)c1,"7.94 µM [rising, partial curve]"
3,Nc1nc2n(n1)C(c1ccco1)CC(c1ccccc1)N2 (stereo not drawn),"6.31 µM [rising, partial curve]"
4,COc1ccc(Oc2ncc3nc(-c4cccs4)c(=O)n(Cc4cccc(OC)c4)c3n2)cc1,"7.94 µM [rising, partial curve]"
5,COc1cccc(Nc2ncc3nc(-c4cc(F)cc(F)c4)c(=O)n(C[C@H]4CCCO4)c3n2)c1,"1.58 µM [rising, full curve]"
6,COc1ccccc1N1CCN(C(=O)c2sc3nc(-c4ccccc4)cn3c2C)CC1,"10 µM [rising, partial curve]"
7,Cc1cccc(-c2nnc3sc(-c4ccccc4)nn23)c1,"25.1 µM [rising, single point]"
8,CN(CCNC(=O)C1CCN(S(=O)(=O)N2CCOCC2)CC1)CCc1ccccc1,"1.26 µM [rising, partial curve]"
9,Cc1cccc(NC(=O)CSc2nnc([C@@H]3CCCN3C(=O)OC(C)(C)C)o2)c1C,"3.98 µM [falling, single point]"
10,Cc1cc(-c2ccccc2)nc(=O)[nH]1,"31.6 µM [falling, single point]"
11,COc1ccc(-n2nc(C(=O)Nc3ccc4c(c3)OCO4)c3ccccc3c2=O)c(OC)c1,"5.01 µM [rising, single point]"
12,Cc1ccc(-c2nnc(SCC(=O)Nc3ccccc3N3CCOCC3)o2)cc1,"12.6 µM [rising, partial curve]"
13,O=C(NCC1CCCO1)C1c2ccccc2C(=O)N1C1CCCCCCC1 (stereo not drawn),"0.398 µM [falling, partial curve]"
14,COc1ccc(CCNc2nc(-c3ccco3)cc(C(F)(F)F)n2)cc1OC,"5.01 µM [rising, partial curve]"
15,CC(=O)Oc1ccc(C(=O)Nc2nnc(C)s2)cc1,"0.316 µM [falling, partial curve]"
16,O=C(Nc1ccccc1C(=O)NCc1ccco1)c1ccccc1,"31.6 µM [rising, single point]"
17,COC(=O)C(CC(C)C)NC(=O)c1ccc(F)cc1 (stereo not drawn),"0.00316 µM [falling, full curve, poor fit]"
18,CCOCCCNC(=O)c1cn(CC(C)C)c(=O)c2cc(OC)c(OC)cc12,"10 µM [rising, partial curve]"
19,CCN(CC)c1ccc2c(C)c(CN3CCOCC3)c(=O)oc2c1,"10 µM [rising, partial curve]"
20,CCN1CCCC1CNC(=O)c1cc2c(-c3ccc(Cl)cc3)nn(C)c2s1 (stereo not drawn),"7.94 µM [rising, partial curve]"
21,O=S(=O)(Cc1ccccc1)N1CCC(N2CCN(c3ccccc3)CC2)CC1,"1 µM [falling, partial curve, poor fit]"
22,CCOC(=O)CSc1nnc(CNC(=O)c2ccco2)n1-c1ccc(F)cc1,"25.1 µM [rising, single point]"
23,CC12CCC(C(=O)n3c1nc1ccccc13)C2(C)C (stereo not drawn),"1 µM [falling, partial curve]"

row,Structure (SMILES),AC50
1,Cn1c(=O)[nH]c(=O)c2c1nc(NCc1ccco1)n2CCCc1ccccc1,"25.1 µM [rising, partial curve, poor fit]"
2,O=C(c1cc(-c2ccco2)on1)N1CCc2ccccc2C1,"0.00316 µM [falling, full curve, poor fit]"
3,CCCNS(=O)(=O)c1ccc(NC(=O)c2ccccn2)cc1,"12.6 µM [rising, partial curve]"
4,COC(=O)c1[nH]c2cccc(OC)c2c1NC(=O)CCN1CCC(C)CC1,"12.6 µM [falling, partial curve]"
5,CCOc1ccc(N2CC(C(=O)Nc3ccc(S(=O)(=O)N4CCOCC4)cc3)CC2=O)cc1 (stereo not drawn),"20 µM [rising, single point]"
6,O=C(O)c1ccccc1C(=O)N1CC=C(c2ccccc2)CC1,"0.251 µM [falling, partial curve, poor fit]"
7,CSc1nsc(SC)c1NC(=O)OCc1ccccc1,"0.00398 µM [falling, full curve, poor fit]"
8,CCCn1c(C)nc2c(Nc3ccccc3)nc(C)nc21,"10 µM [rising, partial curve]"
9,O=c1[nH]c(CSc2nnc(-c3ccncc3)n2Cc2ccco2)nc2ccccc12,"12.6 µM [rising, single point]"
10,C=CCN1C(=O)/C(=C2/Sc3ccccc3N2C)SC1=Nc1c(C)n[nH]c1C,"1.58 µM [rising, full curve]"
11,COc1ccccc1CNc1ccnc(-c2ccc(C(=O)N(C)C)cc2)n1,"6.31 µM [rising, partial curve]"
12,C=CCn1c(N)c(C(=O)NCC2CCCO2)c2nc3ccccc3nc21 (stereo not drawn),"10 µM [rising, partial curve]"
13,CCc1ccc(N2CC(C(=O)Nc3cc(C)ccc3F)CC2=O)cc1 (stereo not drawn),"0.398 µM [rising, partial curve]"
14,NC(=O)CSC1=Nc2ccccc2C2=NC(CCC(=O)NCc3ccc(F)cc3)C(=O)N12 (stereo not drawn),"0.00316 µM [falling, full curve, poor fit]"
15,CC(=O)N1CCc2cc(S(=O)(=O)CCC(=O)Nc3c(C)n(C)n(-c4ccccc4)c3=O)ccc21,"0.1 µM [falling, single point]"
16,O=C(CN1CCN(c2nc(-c3ccc(F)cc3)cs2)CC1)NCc1ccc2c(c1)OCO2,"0.794 µM [falling, partial curve]"
17,CCOC(=O)c1cccnc1SCc1cc(=O)n2ccccc2n1,"7.94 µM [rising, partial curve]"
18,CCCC(C)C(=O)Nc1nnc(C)s1 (stereo not drawn),"1 µM [rising, partial curve, poor fit]"
19,COc1ccc(CCNC(=O)c2cc(-c3ccccc3O)n[nH]2)cc1OC,"0.00316 µM [rising, full curve]"
20,O=C(CN1CCOCCOCCN(CC(=O)Nc2ccccc2)CCOCC1)Nc1ccccc1,"31.6 µM [falling, partial curve]"
21,CCc1c(C)n2nc(C)cc2[nH]c1=O,"0.1 µM [falling, single point]"
22,CCOC(=O)Nc1nc(-c2ccccc2)c(C)s1,"2.51 µM [falling, single point]"
23,Cc1oc2nc(SCC(=O)NCc3cccnc3)nc(N)c2c1C,"12.6 µM [rising, partial curve]"

# Reformatted with tabs: part of the list above.
row	Structure (SMILES)	AC50
1	Cn1c(=O)[nH]c(=O)c2c1nc(NCc1ccco1)n2CCCc1ccccc1	25.1 µM [rising, partial curve, poor fit]
2	O=C(c1cc(-c2ccco2)on1)N1CCc2ccccc2C1	0.00316 µM [falling, full curve, poor fit]
3	CCCNS(=O)(=O)c1ccc(NC(=O)c2ccccn2)cc1	12.6 µM [rising, partial curve]
4	COC(=O)c1[nH]c2cccc(OC)c2c1NC(=O)CCN1CCC(C)CC1	12.6 µM [falling, partial curve]
5	CCOc1ccc(N2CC(C(=O)Nc3ccc(S(=O)(=O)N4CCOCC4)cc3)CC2=O)cc1 (stereo not drawn)	20 µM [rising, single point]
6	O=C(O)c1ccccc1C(=O)N1CC=C(c2ccccc2)CC1	0.251 µM [falling, partial curve, poor fit]
7	CSc1nsc(SC)c1NC(=O)OCc1ccccc1	0.00398 µM [falling, full curve, poor fit]
8	CCCn1c(C)nc2c(Nc3ccccc3)nc(C)nc21	10 µM [rising, partial curve]
9	O=c1[nH]c(CSc2nnc(-c3ccncc3)n2Cc2ccco2)nc2ccccc12	12.6 µM [rising, single point]
11	COc1ccccc1CNc1ccnc(-c2ccc(C(=O)N(C)C)cc2)n1	6.31 µM [rising, partial curve]
12	C=CCn1c(N)c(C(=O)NCC2CCCO2)c2nc3ccccc3nc21 (stereo not drawn)	10 µM [rising, partial curve]
13	CCc1ccc(N2CC(C(=O)Nc3cc(C)ccc3F)CC2=O)cc1 (stereo not drawn)	0.398 µM [rising, partial curve]
14	NC(=O)CSC1=Nc2ccccc2C2=NC(CCC(=O)NCc3ccc(F)cc3)C(=O)N12 (stereo not drawn)	0.00316 µM [falling, full curve, poor fit]
15	CC(=O)N1CCc2cc(S(=O)(=O)CCC(=O)Nc3c(C)n(C)n(-c4ccccc4)c3=O)ccc21	0.1 µM [falling, single point]
16	O=C(CN1CCN(c2nc(-c3ccc(F)cc3)cs2)CC1)NCc1ccc2c(c1)OCO2	0.794 µM [falling, partial curve]
19	COc1ccc(CCNC(=O)c2cc(-c3ccccc3O)n[nH]2)cc1OC	0.00316 µM [rising, full curve]
21	CCc1c(C)n2nc(C)cc2[nH]c1=O	0.1 µM [falling, single point]
22	CCOC(=O)Nc1nc(-c2ccccc2)c(C)s1	2.51 µM [falling, single point]
23	Cc1oc2nc(SCC(=O)NCc3cccnc3)nc(N)c2c1C	12.6 µM [rising, partial curve]

# Additional records follow.

row,Structure (SMILES),AC50
1,c1csc(CNc2ncnc3ccc(-c4ccoc4)cc23)c1,"0.398 µM [falling, full curve, poor fit]"
2,O=C(NCC1CCCO1)C1c2ccccc2C(=O)N1Cc1ccc2c(c1)OCO2 (stereo not drawn),"0.0631 µM [falling, full curve, poor fit]"
3,C=CCOc1ccc(/C(CC)=N/O)c(OC)c1,"10 µM [rising, partial curve]"
4,C=C(CO)[C@H]1Cc2c(ccc3c2O[C@H]2COc4cc(OC)c(OC)cc4[C@@H]2C3=O)O1,"20 µM [falling, partial curve, poor fit]"
5,CC(=O)c1ccc2c3c(cccc13)C(=O)N(c1c(C)nn(C)c1C)C2=O,"15.8 µM [rising, single point]"
6,Cc1cccc(OCC(O)Cn2c(-n3nc(C)cc3C)nc3c2c(=O)[nH]c(=O)n3C)c1 (stereo not drawn),"12.6 µM [rising, partial curve]"
7,CC(Nc1ncnc2nc[nH]c12)c1ccccc1 (stereo not drawn),"10 µM [rising, single point]"
8,CCc1cc2cc(C(=O)N3CCN(Cc4ccccc4)CC3)sc2s1,"25.1 µM [falling, single point]"
9,CCC1C(C#N)=C(N)OC2=C1C(=O)CC(C)(C)C2 (stereo not drawn),"0.398 µM [falling, full curve]"
10,C=CCn1c(=O)[nH]c2cc(C(=O)N3CCN(c4cc(C)ccc4C)CC3)ccc2c1=O,"0.794 µM [falling, full curve]"
11,Cc1cc(C)n(-c2nnc(C)n2/N=C/c2ccccc2OCc2ccccc2Cl)n1,"0.631 µM [rising, full curve]"
12,COc1ccc(NC(=O)CC2Sc3ncnn3C2=O)cc1 (stereo not drawn),"10 µM [falling, single point]"
13,O=C1c2ccccc2C(Nc2ccccc2F)N1c1cccnc1 (stereo not drawn),"12.6 µM [rising, partial curve]"
14,O=S(=O)(c1cccc(-c2nc3n(n2)Cc2ccccc2-3)c1)N1CCCC1,"2.51 µM [rising, full curve]"
15,CCc1c(C)nc(Nc2nc(C)c3cc(OC)ccc3n2)[nH]c1=O,"0.631 µM [rising, full curve, poor fit]"
16,COC(=O)c1sc(NC(=O)Cc2cccs2)nc1C,"15.8 µM [rising, single point]"
17,COc1ccc(Cl)cc1-n1c(C)cc(C(=O)O)c1C,"0.1 µM [falling, full curve]"
18,Cc1cccc2cc(COC(=O)C(C)C)c(=O)[nH]c12,"5.01 µM [falling, full curve]"
19,CCCn1cnc2c1c(=O)n(CCCCC(C)=O)c(=O)n2C,"25.1 µM [rising, single point]"
20,COc1ccc(-n2nnnc2SCC(=O)c2ccc(OC)c(OC)c2)cc1,"12.6 µM [rising, single point]"
21,COCCn1c(=N)c(C(=O)NCCc2ccccc2)cc2c(=O)n3cccc(C)c3nc21,"12.6 µM [rising, partial curve]"
22,O=C(Cn1c(=O)n(Cc2ccco2)c(=O)c2ccccc21)NCC1CCCO1 (stereo not drawn),"0.0794 µM [falling, partial curve]"
